This passage reports binding results from doi:10.1101/2021.09.23.461563.

These are yes or no findings as the source states them, for the method shown. Binding can be weak; no strength is given.

This assay concerns the target GST-ErpQ (Borrelia burgdorferi strain B31). Put plainly: SPR. Background: Surface plasmon resonance follows binding to a sensor surface in real time, without labels.

B1: C1s enzyme (activated form of human C1s) (enzyme, UniProt P09871 16-437; P09871 438-688)
chain 1: EPTMYGEILSPNYPQAYPSEVEKSWDIEVPEGYGIHLYFTHLDIELSENCAYDSVQIISGDTEEGRLCGQRSSNNPHSPIVEEFQVPYNKLQVIFKSDFSNEERFTGFAAYYVATDINECTDFVDVPCSHFCNNFIGGYFCSCPPEYFLHDDMKNCGVNCSGDVFTALIGEIASPNYPKPYPENSRCEYQIRLEKGFQVVVTLRREDFDVEAADSAGNCLDSLVFVAGDRQFGPYCGHGFPGPLNIETKSNALDIIFQTDLTGQKKGWKLRYHGDPMPCPKEDTPNSVWEPAKAKYVFRDVVQITCLDGFEVVEGRVGATSFYSTCQSNGKWSNSKLKCQPVDCGIPESIENGKVEDPESTLFGSVIRYTCEEPYYYMENGGGGEYHCAGNGSWVNEVLGPELPKCVPVCGVPREPFEEKQR
chain 2: IIGGSDADIKNFPWQVFFDNPWAGGALINEYWVLTAAHVVEGNREPTMYVGSTSVQTSRLAKSKMLTPEHVFIHPGWKLLEVPEGRTNFDNDIALVRLKDPVKMGPTVSPICLPGTSSDYNLMDGDLGLISGWGRTEKRDRAVRLKAARLPVAPLRKCKEVKVEKPTADAEAYVFTPNMICAGGEKGMDSCKGDSGGAFAVQDPNDKTKFYAAGLVSWGPQCGTYGLYTRVKNYVDWIMKTMQENSTPRED
In the case of B1, the binding entry was “binds”.
